Results taken from the supplement of paper PMC10849652.
The list shows a part of the results.

Chains of the proteins cited; added tags and fusions are not shown. Lines headed by an entry give the natural chain unless they say otherwise; changes in a name come on top.
UniProt Q86US8: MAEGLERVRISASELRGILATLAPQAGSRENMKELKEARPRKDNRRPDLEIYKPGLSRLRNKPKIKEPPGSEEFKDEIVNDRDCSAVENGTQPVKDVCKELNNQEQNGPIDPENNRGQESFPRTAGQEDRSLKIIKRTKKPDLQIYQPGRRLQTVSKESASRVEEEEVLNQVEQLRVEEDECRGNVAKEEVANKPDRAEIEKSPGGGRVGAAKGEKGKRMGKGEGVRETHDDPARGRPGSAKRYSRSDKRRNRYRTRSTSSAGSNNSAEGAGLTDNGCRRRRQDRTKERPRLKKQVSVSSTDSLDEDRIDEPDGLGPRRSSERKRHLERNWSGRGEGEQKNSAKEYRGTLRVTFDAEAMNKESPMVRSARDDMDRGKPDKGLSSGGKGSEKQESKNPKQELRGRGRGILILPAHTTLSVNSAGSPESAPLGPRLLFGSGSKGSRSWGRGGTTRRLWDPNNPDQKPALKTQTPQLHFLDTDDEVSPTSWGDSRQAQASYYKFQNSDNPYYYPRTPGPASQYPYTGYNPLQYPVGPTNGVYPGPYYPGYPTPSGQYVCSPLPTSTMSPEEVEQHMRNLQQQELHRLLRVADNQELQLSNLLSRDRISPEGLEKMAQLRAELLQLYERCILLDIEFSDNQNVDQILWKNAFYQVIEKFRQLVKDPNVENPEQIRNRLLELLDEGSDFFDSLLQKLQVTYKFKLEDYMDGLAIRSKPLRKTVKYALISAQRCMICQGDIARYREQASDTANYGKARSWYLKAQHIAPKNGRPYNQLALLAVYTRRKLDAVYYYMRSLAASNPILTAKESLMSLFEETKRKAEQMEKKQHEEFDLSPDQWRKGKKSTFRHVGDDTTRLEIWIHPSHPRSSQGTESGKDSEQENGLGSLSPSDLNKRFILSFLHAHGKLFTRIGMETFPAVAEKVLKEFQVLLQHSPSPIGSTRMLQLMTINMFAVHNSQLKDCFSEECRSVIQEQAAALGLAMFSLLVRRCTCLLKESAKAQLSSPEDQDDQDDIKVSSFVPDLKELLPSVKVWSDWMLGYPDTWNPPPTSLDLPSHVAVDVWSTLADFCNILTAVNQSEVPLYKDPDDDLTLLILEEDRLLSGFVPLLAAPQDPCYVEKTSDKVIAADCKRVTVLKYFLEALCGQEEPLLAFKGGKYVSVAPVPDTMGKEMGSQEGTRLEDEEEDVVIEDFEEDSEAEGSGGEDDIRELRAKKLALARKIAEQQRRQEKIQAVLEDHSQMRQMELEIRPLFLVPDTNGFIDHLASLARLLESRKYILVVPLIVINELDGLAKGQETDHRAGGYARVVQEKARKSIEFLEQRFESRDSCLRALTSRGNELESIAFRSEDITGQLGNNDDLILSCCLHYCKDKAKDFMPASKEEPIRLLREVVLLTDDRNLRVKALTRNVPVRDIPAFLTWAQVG
UniProt P53814: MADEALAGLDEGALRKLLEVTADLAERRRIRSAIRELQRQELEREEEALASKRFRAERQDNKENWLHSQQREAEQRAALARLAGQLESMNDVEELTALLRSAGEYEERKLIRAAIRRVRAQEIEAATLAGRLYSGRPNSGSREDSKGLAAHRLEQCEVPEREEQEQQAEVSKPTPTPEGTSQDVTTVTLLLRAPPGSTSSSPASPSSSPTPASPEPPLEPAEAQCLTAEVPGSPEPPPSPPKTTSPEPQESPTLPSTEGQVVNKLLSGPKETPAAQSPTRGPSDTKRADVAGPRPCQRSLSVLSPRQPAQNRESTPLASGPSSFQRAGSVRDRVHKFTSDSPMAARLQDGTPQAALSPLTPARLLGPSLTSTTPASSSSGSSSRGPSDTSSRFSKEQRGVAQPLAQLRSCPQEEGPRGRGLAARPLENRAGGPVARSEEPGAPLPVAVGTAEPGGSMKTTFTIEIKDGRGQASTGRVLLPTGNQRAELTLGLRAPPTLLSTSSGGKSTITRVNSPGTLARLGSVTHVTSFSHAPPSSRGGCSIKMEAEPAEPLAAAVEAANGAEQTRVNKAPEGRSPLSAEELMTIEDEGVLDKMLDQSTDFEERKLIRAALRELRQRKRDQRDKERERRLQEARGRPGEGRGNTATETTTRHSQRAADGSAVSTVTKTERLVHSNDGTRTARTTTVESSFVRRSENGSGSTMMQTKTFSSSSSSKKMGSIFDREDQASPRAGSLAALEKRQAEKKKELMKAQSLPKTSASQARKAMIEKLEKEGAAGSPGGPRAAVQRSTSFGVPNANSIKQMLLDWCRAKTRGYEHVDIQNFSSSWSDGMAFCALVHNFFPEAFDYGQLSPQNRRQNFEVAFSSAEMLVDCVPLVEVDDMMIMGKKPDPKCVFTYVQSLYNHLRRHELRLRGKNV
UniProt Q92543: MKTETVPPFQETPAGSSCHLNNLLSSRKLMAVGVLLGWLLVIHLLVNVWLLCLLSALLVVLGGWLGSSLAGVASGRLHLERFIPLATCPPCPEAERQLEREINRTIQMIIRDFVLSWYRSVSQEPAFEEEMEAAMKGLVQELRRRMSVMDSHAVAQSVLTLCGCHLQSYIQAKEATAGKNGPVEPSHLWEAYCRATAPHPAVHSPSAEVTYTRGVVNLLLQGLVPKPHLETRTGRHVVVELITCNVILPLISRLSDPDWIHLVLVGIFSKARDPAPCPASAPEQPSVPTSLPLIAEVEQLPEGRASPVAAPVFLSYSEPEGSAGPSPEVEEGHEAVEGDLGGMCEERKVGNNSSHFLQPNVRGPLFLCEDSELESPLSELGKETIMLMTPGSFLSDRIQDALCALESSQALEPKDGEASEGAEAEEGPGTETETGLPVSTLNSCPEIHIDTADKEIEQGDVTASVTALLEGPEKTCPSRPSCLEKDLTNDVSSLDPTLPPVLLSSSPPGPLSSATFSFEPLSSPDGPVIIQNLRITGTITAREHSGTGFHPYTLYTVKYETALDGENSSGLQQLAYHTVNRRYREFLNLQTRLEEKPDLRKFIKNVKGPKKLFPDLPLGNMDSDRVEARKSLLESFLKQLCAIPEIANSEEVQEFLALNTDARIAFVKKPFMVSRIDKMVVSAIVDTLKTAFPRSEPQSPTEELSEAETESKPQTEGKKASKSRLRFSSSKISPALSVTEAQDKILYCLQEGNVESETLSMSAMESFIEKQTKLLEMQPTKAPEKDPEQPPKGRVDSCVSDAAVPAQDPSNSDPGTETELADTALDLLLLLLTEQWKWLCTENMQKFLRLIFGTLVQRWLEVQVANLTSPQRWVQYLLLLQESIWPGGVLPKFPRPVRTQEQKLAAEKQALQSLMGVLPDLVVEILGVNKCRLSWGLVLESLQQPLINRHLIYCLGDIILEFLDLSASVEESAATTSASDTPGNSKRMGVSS
UniProt Q13425: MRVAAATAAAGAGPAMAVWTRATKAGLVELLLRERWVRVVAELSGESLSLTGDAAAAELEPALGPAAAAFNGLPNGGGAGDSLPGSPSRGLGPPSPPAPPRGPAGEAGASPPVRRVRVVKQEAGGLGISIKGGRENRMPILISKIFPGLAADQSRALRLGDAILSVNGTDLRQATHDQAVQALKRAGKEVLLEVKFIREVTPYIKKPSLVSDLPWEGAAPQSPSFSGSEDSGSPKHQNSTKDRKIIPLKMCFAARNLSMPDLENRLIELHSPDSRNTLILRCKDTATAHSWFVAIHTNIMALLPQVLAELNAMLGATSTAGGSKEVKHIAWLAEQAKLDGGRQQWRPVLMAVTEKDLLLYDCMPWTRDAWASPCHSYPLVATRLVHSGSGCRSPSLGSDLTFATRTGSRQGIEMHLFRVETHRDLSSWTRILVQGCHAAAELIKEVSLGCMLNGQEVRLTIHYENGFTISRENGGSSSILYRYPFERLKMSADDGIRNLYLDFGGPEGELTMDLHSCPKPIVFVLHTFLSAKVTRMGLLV
UniProt O00161: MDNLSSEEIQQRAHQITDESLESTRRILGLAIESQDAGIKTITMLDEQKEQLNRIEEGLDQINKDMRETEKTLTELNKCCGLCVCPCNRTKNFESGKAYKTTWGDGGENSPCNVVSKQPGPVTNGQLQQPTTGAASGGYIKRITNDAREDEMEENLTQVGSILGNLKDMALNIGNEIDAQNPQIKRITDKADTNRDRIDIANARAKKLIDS
UniProt Q5VWJ9: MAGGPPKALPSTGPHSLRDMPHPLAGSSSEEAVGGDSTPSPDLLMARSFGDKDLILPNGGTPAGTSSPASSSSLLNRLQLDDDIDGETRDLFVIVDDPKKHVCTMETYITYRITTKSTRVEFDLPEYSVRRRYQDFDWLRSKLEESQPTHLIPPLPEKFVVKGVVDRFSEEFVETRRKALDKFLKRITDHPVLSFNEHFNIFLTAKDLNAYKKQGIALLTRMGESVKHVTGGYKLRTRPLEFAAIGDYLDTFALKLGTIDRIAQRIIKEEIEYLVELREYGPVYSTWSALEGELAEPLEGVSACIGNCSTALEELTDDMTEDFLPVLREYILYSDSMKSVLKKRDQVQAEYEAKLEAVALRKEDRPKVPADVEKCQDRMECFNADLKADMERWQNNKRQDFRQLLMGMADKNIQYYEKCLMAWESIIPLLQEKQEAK
UniProt Q96GM5, whole entry, looked up: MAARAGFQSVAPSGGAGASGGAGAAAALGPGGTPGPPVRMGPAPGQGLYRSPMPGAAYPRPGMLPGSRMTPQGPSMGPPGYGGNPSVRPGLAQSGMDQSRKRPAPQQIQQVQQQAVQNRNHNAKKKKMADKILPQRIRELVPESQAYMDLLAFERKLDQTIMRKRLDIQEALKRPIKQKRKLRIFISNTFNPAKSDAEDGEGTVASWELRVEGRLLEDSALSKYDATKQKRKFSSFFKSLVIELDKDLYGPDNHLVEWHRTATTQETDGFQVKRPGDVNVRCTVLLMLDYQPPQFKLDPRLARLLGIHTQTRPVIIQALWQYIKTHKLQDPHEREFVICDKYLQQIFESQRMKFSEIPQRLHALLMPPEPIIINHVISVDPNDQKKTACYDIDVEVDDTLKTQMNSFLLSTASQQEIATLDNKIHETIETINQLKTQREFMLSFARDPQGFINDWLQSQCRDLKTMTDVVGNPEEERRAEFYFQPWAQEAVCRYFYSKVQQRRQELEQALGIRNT
UniProt Q9NRS6: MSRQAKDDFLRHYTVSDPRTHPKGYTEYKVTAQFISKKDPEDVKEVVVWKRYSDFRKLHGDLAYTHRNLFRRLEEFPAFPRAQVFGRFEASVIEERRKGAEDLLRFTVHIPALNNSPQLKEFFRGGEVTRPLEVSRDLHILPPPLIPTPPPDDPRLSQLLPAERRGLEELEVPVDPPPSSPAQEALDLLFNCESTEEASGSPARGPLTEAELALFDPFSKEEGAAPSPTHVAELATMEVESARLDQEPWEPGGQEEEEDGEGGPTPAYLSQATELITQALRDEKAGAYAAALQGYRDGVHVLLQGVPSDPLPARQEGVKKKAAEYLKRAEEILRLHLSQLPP
UniProt P0DMW3: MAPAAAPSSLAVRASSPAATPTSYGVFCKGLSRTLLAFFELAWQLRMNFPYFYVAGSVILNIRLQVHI
UniProt Q92540: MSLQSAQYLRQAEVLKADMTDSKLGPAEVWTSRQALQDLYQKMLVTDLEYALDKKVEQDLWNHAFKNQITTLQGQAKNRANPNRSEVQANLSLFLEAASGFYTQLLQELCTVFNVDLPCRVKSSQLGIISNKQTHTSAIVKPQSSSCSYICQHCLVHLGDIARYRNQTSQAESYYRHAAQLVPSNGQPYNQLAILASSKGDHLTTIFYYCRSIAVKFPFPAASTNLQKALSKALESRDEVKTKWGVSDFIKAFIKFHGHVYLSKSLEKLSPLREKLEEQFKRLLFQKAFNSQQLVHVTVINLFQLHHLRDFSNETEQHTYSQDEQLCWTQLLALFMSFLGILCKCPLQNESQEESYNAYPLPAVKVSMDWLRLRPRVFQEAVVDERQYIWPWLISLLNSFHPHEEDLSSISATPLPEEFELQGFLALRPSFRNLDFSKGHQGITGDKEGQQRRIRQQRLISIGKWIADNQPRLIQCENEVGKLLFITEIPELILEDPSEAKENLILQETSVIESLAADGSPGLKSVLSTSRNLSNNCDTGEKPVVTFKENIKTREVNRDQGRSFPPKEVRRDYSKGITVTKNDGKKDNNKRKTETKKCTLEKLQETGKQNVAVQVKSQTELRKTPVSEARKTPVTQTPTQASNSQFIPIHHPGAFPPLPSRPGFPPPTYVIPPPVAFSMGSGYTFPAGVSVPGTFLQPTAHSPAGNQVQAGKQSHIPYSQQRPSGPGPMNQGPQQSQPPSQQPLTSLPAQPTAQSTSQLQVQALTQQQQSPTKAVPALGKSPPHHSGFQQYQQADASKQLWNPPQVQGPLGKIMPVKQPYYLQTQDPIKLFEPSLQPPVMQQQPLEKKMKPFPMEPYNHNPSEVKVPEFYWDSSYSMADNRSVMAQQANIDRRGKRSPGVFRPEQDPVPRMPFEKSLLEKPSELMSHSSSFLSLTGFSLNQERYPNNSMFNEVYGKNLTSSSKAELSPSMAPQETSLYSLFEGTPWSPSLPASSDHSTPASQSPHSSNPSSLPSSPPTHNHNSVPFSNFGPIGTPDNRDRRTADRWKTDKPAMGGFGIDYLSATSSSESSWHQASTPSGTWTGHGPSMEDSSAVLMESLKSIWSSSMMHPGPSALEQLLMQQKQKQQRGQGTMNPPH

Key:
Experiment in all cases: log2 fold change, soluble protein after heating vs DMSO (PISA); higher = thermal stabilisation; K562 cells, 10 uM, 30 min; active = over 0.2 and 3.5 SD of the protein, either way, in both replicates (recomputed)
[1] = compound: C/C(=N\NC(=O)C1=CC(=CC=C1)S(=O)(=O)N2CCOCC2)/C3=C(C=CC(=C3)Cl)O
How it was run: (§1)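 K562 cells at 2×10^6 cells/mL were exposed to 10 μM compound for 30 min, then aliquots were heated for 3 min across 48°C-58°C, pooled, and extracted in PBS containing 0.5% NP-40 at 4°C. The supernatant after 21,000xg for 90 min was taken as soluble protein and measured by TMTpro 16plex LC-MS/MS with channel sums equalised. Thermal stability is reported relative to control samples, with values from duplicates. Fold changes are given on a log2 scale.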

[2] = compound: C1=CC(=C(C=C1Cl)C2=NC3=NC=CN=C3C(=N2)NC4=CC=NC=C4)F
How it was run: as §1

[3] = compound: C1=CC2=C(C=CC(=C2)/C=C\3/C(=O)NC(=NCC4=CC=CS4)S3)N=C1
How it was run: as §1

[4] = compound: C1=CC2=NC=CN=C2C=C1/C=C/3\C(=O)NC(=O)S3
How it was run: as §1

[5] = compound: C1=CC=C(C=C1)C2=NC(=C(N2)C3=CC=NC=C3)C4=CC(=C(C=C4)Cl)O
How it was run: as §1

[6] = compound: C1=CC=C2C(=C1)C3=NNC4=CC=CC(=C43)C2=O
How it was run: as §1

[7] = compound: C1CCN(C1)C(=O)NC2=CC=CC(=C2)NC3=NC=C(C(=N3)NCCC4=CN=CN4)Br
How it was run: as §1

[8] = compound: C1CN(CCC1(CC2=CC=C(C=C2)Cl)N)C3=NC=NC4=C3C=CN4
How it was run: as §1

erlotinib = compound: C#Cc1cccc(Nc2ncnc3cc(OCCOC)c(OCCOC)cc23)c1 [erlotinib]
How it was run: as §1

[9] = compound: C1=CC(=CC=C1C2=NC3=C(N2)C=C(C=C3)C(=O)N)OC4=CC=C(C=C4)Cl
How it was run: as §1

Measured: log2 fold change

SLFN14 (UniProt P0C7P3)
inactive: [1] -0.737 | [2] 0.143 | [3] -0.152 | [4] 0.12 | [5] -0.127 | [6] -0.013 | [7] 0.197 | [8] -0.058

SNX16 (UniProt P57768)
inactive: erlotinib 0.019 | [2] 0.092 | [9] 0.013 | [4] 0.186 | [5] -0.024

SMDT1 (UniProt Q9H4I9)
inactive: [1] 0.012 | [2] -0.032 | [3] 0.044 | [4] 0.067 | [6] 0.044 | [7] 0.01 | [8] 0.036

SMPD1 (UniProt P17405)
inactive: [1] -0.122 | [3] -0.015 | [5] 0.317 | [6] -0.102

Taken from the results shown (two entries):
SNX16 (UniProt P57768)
inactive: erlotinib 0.019 | [2] 0.092 | [9] 0.013 | [4] 0.186 | [5] -0.024

SMDT1 (UniProt Q9H4I9)
inactive: [1] 0.012 | [2] -0.032 | [3] 0.044 | [4] 0.067 | [6] 0.044 | [7] 0.01 | [8] 0.036

Next results

SMARCAL1 (UniProt Q9NZC9)
inactive: erlotinib 0.068 | [9] -0.04 | [5] -0.151

SMG6 (UniProt Q86US8)
inactive: [2] -0.45 | [4] -0.041 | [7] -0.195 | [8] 0.323

SMAD3 (UniProt P84022)
inactive: [1] -0.006 | [3] 0.027 | [5] -0.081 | [6] 0.04 | [7] -0.191 | [8] 0.012

SMTN isoform 6 (UniProt P53814)
inactive: erlotinib 0.184 | [2] -0.156 | [9] 0.082 | [7] 0.166 | [8] 0.131

SNX4 (UniProt O95219)
inactive: [5] -0.129

SMAGP (UniProt Q0VAQ4)
inactive: [1] 0.184 | [2] 0.16 | [3] -0.028 | [4] 0.161 | [6] 0.107 | [7] -0.132 | [8] -0.143

SLPI (UniProt P03973)
inactive: [5] -0.072

SNX19 (UniProt Q92543)
inactive: erlotinib 0.08 | [2] -0.061 | [9] -0.213

SMIM29 (UniProt Q86T20)
inactive: erlotinib 0.145 | [9] -0.105

SMIM11A (UniProt P58511)
inactive: [4] -0.028

SNTB2 (UniProt Q13425)
inactive: [1] 0.061 | [2] -0.009 | [3] 0.049 | [4] 0.005 | [5] -0.231 | [6] -0.012 | [7] -0.047 | [8] 0.146

SNAP23 isoform 2 (UniProt O00161)
inactive: erlotinib 0.133 | [2] -0.007 | [9] 0.044 | [7] -0.076 | [8] 0.226

SNRPD2 (UniProt K7EJB5)
inactive: [1] -0.198 | [3] 0.214 | [4] 0.202 | [5] -0.254 | [6] -0.072 | [7] 0.148 | [8] -0.138

SMARCB1 (UniProt Q12824)
inactive: [7] 0.038 | [8] 0.025

SNX30 (UniProt Q5VWJ9)
inactive: [2] -0.108

SNRPN isoform 2 (UniProt P63162)
inactive: [1] 0.137 | [3] -0.276 | [5] -0.163 | [6] -0.188

SMPDL3A (UniProt Q92484)
inactive: [2] 0.087 | [7] -0.018 | [8] 0.084

SORBS3 (UniProt O60504)
inactive: erlotinib 0.038 | [2] 0.055 | [9] 0.114 | [4] -0.345

SP4 (UniProt Q02446)
inactive: [5] -0.324 | [7] -0.135 | [8] 0.081

SNX18 (UniProt Q96RF0)
inactive: erlotinib -0.05 | [2] 0.174 | [9] 0.049

SMARCD1 (UniProt Q96GM5)
inactive: erlotinib 0.024 | [9] 0.038

SMPD4 isoform 2 (UniProt Q9NXE4)
inactive: [1] -0.001 | [3] 0.134 | [4] -0.027 | [6] -0.003 | [7] -0.011 | [8] 0.05

SMIM13 (UniProt P0DJ93)
inactive: [4] 0.006 | [5] -0.006

SNX15 (UniProt Q9NRS6)
inactive: [1] 0.062 | [3] -0.088 | [4] -0.006 | [5] 0 | [6] -0.065 | [7] -0.166 | [8] -0.072

SMIM10L1 (UniProt P0DMW3)
inactive: erlotinib -0.224 | [9] 0.021

SP2 (UniProt Q02086)
inactive: [1] 0 | [3] 0.229 | [6] 0.095

SNX13 (UniProt Q9Y5W8)
inactive: erlotinib 0.289 | [2] 0.004 | [9] -0.048 | [4] -0.014 | [5] 0.105

SOX6 (UniProt P35712)
inactive: [5] 0.058

SMR3B (UniProt P02814)
inactive: [4] 0.054

SLC9B2 (UniProt Q86UD5)
inactive: [2] 0.016

SMU1 isoform 2 (UniProt Q2TAY7)
inactive: [4] 0.061

SOD3 (UniProt P08294)
inactive: [1] -0.01 | [3] -0.011 | [6] -0.094 | [7] 0.049 | [8] 0.214

SMIM19 (UniProt Q96E16)
inactive: [1] 0.156 | [3] 0.115 | [5] 0.044 | [6] -0.038 | [7] 0.015 | [8] -0.314

SNTA1 (UniProt Q13424)
inactive: [1] 0.017 | [2] -0.115 | [3] 0.018 | [4] 0.041 | [5] 0.078 | [6] 0.025 | [7] -0.056 | [8] 0.013

SNX2 isoform 2 (UniProt O60749)
inactive: [1] -0.244 | [2] 0.091 | [3] 0.402 | [4] -0.186 | [6] -0.033

SMG7 isoform 4 (UniProt Q92540)
inactive: erlotinib 0.19 | [2] -0.269 | [9] 0 | [4] -0.07 | [5] 0.015 | [7] -0.006 | [8] 0.139
